# Test results: US6818391B2, “Glutamate transporters” (The Regents of the University of California, priority 2000, dated 2004)
# For at least one compound, name, drawing or mass did not settle the structure.
# Columns and labels:
# Type in all cases: biochemical
# [1] = biological target: T1, BNPI (VGLUT1) (Rattus norvegicus, UniProt Q62634); assay: 3H-glutamate uptake by membranes from PC12 cells expressing BNPI; conditions: 10 mM, uptake at 5 min
# T1 construct: expressed in transfected cells; light membranes prepared from them
# T1 sequence (Q62634 1-560): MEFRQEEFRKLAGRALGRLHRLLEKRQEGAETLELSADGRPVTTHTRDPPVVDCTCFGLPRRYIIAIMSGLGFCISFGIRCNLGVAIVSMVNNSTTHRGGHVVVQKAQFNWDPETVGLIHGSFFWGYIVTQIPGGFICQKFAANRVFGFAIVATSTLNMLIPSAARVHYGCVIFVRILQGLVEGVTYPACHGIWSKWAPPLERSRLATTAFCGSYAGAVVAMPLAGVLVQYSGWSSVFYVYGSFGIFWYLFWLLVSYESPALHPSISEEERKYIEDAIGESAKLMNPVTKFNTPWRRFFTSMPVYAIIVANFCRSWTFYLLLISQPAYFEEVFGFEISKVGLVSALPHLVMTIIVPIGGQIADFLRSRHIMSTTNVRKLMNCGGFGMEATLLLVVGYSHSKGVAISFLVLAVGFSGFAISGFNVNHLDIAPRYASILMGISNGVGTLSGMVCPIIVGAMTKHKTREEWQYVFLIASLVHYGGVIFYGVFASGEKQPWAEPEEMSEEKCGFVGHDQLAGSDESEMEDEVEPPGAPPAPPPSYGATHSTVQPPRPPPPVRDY
# Excerpt: Rather, the type I transporter NaPi-1 transports organic anions, including phenol red and penicillin G, with substantially higher apparent affinity than Pi (Busch et al. (1996) Proc. Natl. Acad. Sci., USA, 93: 5347). Human genetic studies have shown that mutations in another protein closely related to BNPI and NaPi-1 account for disorders of sialic acid storage (Verheijen et al. (1999) Nature Genet. 23: 462). In these conditions, sialic acid accumulates in lysosomes because of a defect in proton-driven export (Renlund et al. (1986) Science 232: 759; Mancini et al. (1989) J. Biol. Chem. 264: 15247; Tietze et al. (1989) J. Biol. Chem. 264: 15316; Mancini et al. (1992) Proc. Natl. Acad. Sci., USA, 89: 6609). […]
# We then prepared a population of light membranes, including synaptic-like microvesicles, from the transfected and untransfected cells (McIntire et al. (1997) Nature 389: 870) and tested their ability to accumulate 3H-glutamate in the presence of 4 mM chloride and ATP, conditions that optimize glutamate accumulation by native synaptic vesicles (Maycox et al. (1988) J. Biol. Chem., 263: 15423; Carlson et al. […] J. Biol. Chem. 264: 7369). […] Background uptake was determined using membranes prepared from untransfected cells that were incubated for the same amount of time at the same temperature. […] The Km was calculated by averaging the results of two separate determinations.
# [2] = biological target: T2, DNPI/VGLUT2 (Rattus norvegicus, UniProt Q9JI12); assay: 3H-L-glutamate uptake by membranes from PC12 cells expressing DNPI/VGLUT2; conditions: 10 mM, uptake at 5 minutes
# T2 construct: To reconstruct the full open reading frame, the missing segment was amplified from rat brain cDNA by PCR; expressed in transfected cells; light membranes prepared from them
# T2 sequence (Q9JI12 1-582): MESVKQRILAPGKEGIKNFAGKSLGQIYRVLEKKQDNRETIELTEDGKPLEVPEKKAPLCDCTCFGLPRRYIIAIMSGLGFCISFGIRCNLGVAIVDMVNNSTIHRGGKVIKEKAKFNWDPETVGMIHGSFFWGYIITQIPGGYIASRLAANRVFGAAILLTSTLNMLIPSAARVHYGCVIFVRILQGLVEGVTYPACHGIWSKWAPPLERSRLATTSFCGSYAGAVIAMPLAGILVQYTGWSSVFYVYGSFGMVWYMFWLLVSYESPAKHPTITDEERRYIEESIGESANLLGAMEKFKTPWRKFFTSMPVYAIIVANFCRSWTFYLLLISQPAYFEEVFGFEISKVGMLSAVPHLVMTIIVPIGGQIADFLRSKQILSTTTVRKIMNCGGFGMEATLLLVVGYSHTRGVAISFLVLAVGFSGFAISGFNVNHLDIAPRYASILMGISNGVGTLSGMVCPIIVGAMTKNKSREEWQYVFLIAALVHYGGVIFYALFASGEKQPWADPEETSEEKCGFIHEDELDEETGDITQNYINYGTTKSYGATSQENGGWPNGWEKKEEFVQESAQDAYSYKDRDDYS
# Experimental: PC12 cells were grown in Dulbecco's modified Eagle's medium containing 10% equine serum, 5% calf serum and transfected by electroporation with the rat DNPI/VGLUT2 cDNA subcloned in the pcDNA3 vector containing an […] (Krantz et al. (2000) J. Cell Biol. 149). Stable transformants were selected for resistance to the neomycin analog G418 (500 μg/ml) and screened by immunofluorescence with the DNPI antibody, resulting in the identification of two independent clones with more than 80% of the cells expressing DNPI. […]
# To initiate the transport reaction, 20 μl membranes (˜200 μg protein) were added to 180 μl SH buffer containing 4 mM KCl, 4 mM MgSO4, […], and 100 μM ^3H-L-glutamate, with other additions noted in the text and figure legends. The reaction mixture was incubated at 29° C. for varying intervals, uptake was terminated by rapid filtration through Supor-200 membranes (Gelman) and the filters were washed rapidly four times with 1.5 ml cold 0.155 M potassium tartrate/10 mm HEPES-KOH, pH 7.4 before measuring the bound radioactivity by scintillation counting in 3 ml Cytoscint (ICN). Uptake specifically mediated by DNPI/VGLUT2 was determined by subtracting the background uptake of untransfected cell membranes from the uptake by transfected cell membranes. […]
# [3] = biological target: T1, BNPI (VGLUT1); assay: acridine orange fluorescence quenching (vesicle acidification) of BNPI-expressing membranes; conditions: 10 mM
# Experimental: Native synaptic vesicles acidify during glutamate uptake (Maycox et al. (1988) J. Biol. Chem., 263: 15423). Glutamate presumably serves as a counterion for protons and dissipates ΔΨ, enabling the vacuolar H+-ATPase to generate a larger ΔpH, but cotransport of H+ with glutamate remains an alternative possibility. To determine whether acidification also accompanies glutamate transport by BNPI, we used the quenching of acridine orange fluorescence to measure vesicle pH. Membranes (200 μg of protein) were diluted into 2 ml of 0.3 M sucrose and 10 mM tris-Mops (pH 7.4) containing 4 mM MgSO4 and 5 μM acridine orange and incubated at 37° C. with continuous stirring. Fluorescence was monitored with a Hitachi F4500 spectrofluorimeter at an excitation wavelength of 492 nm and emission of 530 nm. Separate measurements were made with at least three different membrane preparations for wild-type and transfected cells; representative tracings are shown in FIG. 5.
smiles,measurement,setting,value
N[C@@H](CC(=O)O)C(=O)O [L-aspartate],inhibition of 3H-glutamate uptake by membranes expressing BNPI,[1],did not and not
same,inhibition of DNPI-mediated 3H-L-glutamate uptake,[2],not
same,effect on acidification of BNPI-expressing membranes by chloride,[3],failed to reduce the acidification and not
same,effect on rate of chloride-dependent acidification of BNPI membranes,"[3]; KCl 20, 50, 140 mM",has little effect
